PMC5996148
Several values for one entry are separate records, joined by “and”; a condition that tells them apart may be missing. Equal values may be shown once. The list shows a part of the results. For some of these results: Construct or isoform of the protein are uncertain.

Amino acid sequences for entries named in this document (tags omitted). A change or cut given only in a name is not applied to a line headed by its entry.
UniProt Q9Y450, whole entry: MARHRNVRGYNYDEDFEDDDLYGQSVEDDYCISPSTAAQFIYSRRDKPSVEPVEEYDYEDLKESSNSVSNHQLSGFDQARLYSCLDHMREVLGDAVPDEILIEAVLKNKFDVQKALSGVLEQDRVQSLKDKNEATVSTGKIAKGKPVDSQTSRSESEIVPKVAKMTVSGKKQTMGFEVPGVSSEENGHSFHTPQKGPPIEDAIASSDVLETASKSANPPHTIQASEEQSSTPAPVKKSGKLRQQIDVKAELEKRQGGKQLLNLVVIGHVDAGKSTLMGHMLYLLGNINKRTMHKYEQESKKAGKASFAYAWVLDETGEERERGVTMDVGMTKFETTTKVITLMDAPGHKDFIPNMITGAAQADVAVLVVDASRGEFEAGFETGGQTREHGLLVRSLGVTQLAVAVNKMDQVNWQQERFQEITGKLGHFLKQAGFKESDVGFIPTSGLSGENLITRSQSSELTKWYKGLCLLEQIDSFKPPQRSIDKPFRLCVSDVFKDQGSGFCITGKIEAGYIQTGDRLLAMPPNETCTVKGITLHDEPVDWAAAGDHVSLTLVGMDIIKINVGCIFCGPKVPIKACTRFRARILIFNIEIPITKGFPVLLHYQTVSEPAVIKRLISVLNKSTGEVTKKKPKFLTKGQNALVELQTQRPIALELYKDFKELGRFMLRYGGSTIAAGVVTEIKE
UniProt Q9Y3E1: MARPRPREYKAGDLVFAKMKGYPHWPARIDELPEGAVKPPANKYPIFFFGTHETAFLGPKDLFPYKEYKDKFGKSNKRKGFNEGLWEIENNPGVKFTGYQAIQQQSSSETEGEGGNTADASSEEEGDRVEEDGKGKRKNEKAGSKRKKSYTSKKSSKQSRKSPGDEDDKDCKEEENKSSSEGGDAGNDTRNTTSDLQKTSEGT

Legend:
Assay in all cases: protein microarray (ProtoArray v5.0), streptavidin-Alexa Fluor 647
Conditions in all cases: 3'-biotin; 20 mM Tris (pH 7.5), 5 mM MgCl2, 100 mM KCl, 0.1% Tween-20, A/T-rich and random oligonucleotide blockers; temperature not stated; high values mean tight binding
HBG1 (human) = test system: HBG1 (human)
HBS1L = HBS1L (UniProt Q9Y450)
HBZ (human) = test system: HBZ (human)
HCCS (human) = test system: HCCS (human)
HCG3 (human) = test system: HCG3 (human)
HDGFRP3 = HDGFRP3 (UniProt Q9Y3E1)
HDHD3 (human) = test system: HDHD3 (human)
HEBP1 (human) = test system: HEBP1 (human)
HEL308 (human) = test system: HEL308 (human)
HFE (human) = test system: HFE (human)

GGTGACAGGGGTATGGGGAGGGG [G4-2 biotinylated (Ct1)]
binding signal (HBG1 (human)): -0.384 z-score and -0.373 z-score
binding signal (HBS1L): 5.01 z-score
binding signal (HBZ (human)): -0.401 z-score
binding signal (HCCS (human)): -0.366 z-score
binding signal (HCG3 (human)): -0.389 z-score
binding signal (HDGFRP3): 4.76 z-score
binding signal (HDHD3 (human)): -0.378 z-score
binding signal (HEBP1 (human)): -0.378 z-score
binding signal (HEL308 (human)): -0.382 z-score
binding signal (HFE (human)): -0.384 z-score
